Literature values as cited in US6610471B1, “Methods and compositions to investigate infection by hepatitis B virus and agents to prevent and treat the infection” (priority 1998, dated 2003).
pEC50: −log10 of the molar value. Where two headings read alike, the source gives them in different places. For at least one compound, name, drawing or mass did not settle the structure.

System: HBV
Conditions: cited from earlier work; for pEC50: read-out: 3TC concentration giving 50% reduction of extracellular HBV DNA, HepG2 2.2.15 cells treated 12 days

Compound: Nc1ccn([C@@H]2CS[C@H](CO)O2)c(=O)n1 [3TC, (−)-2′-dideoxy-3′-thiacytidine]
- 3TC concentration giving 90% decrease in virion DNA (HepG2 2.2.15, nine days of treatment, Korba (1996)): 0.222 µM
- pEC50 (Doong et al. (1991)): 7.30
- pEC50 (Kruining et al. (1995)): 7.70
